The values that follow come from PMC8510267.

These are yes or no findings as the source states them, for the method shown. Binding seen in cells or lysates may run through a third protein. Binding calls can cover weak binding; strength is not graded here. Where a sequence is shown, tags or fusion partners need not be part of it.

For the assay, the target named is FLAG-PABPC4 (not stated (human or pig cDNA cloned)). The assay can be described thus: co-IP.

B1: myc-NDP52 (protein, UniProt Q13137 1-446)
chain: MEETIKDPPTSAVLLDHCHFSQVIFNSVEKFYIPGGDVTCHYTFTQHFIPRRKDWIGIFRVGWKTTREYYTFMWVTLPIDLNNKSAKQQEVQFKAYYLPKDDEYYQFCYVDEDGVVRGASIPFQFRPENEEDILVVTTQGEVEEIEQHNKELCKENQELKDSCISLQKQNSDMQAELQKKQEELETLQSINKKLELKVKEQKDYWETELLQLKEQNQKMSSENEKMGIRVDQLQAQLSTQEKEMEKLVQGDQDKTEQLEQLKKENDHLFLSLTEQRKDQKKLEQTVEQMKQNETTAMKKQQELMDENFDLSKRLSENEIICNALQRQKERLEGENDLLKRENSRLLSYMGLDFNSLPYQVPTSDEGGARQNPGLAYGNPYSGIQESSSPSPLSIKKCPICKADDICDHTLEQQQMQPLCFNCPICDKIFPATEKQIFEDHVFCHSL
With B1, the binding result was “binds”.

B2: myc-MARCH8 (enzyme, UniProt Q5T0T0 1-291)
chain: MSMPLHQISAIPSQDAISARVYRSKTKEKEREEQNEKTLGHFMSHSSNISKAGSPPSASAPAPVSSFSRTSITPSSQDICRICHCEGDDESPLITPCHCTGSLHFVHQACLQQWIKSSDTRCCELCKYEFIMETKLKPLRKWEKLQMTSSERRKIMCSVTFHVIAITCVVWSLYVLIDRTAEEIKQGQATGILEWPFWTKLVVVAIGFTGGLLFMYVQCKVYVQLWKRLKAYNRVIYVQNCPETSKKNIFEKSPLTEPNFENKHGYGICHSDTNSSCCTEPEDTGAEIIHV
For B2, the binding entry was “binds”.
